Reference: article PMC7588454
These are yes or no findings as the source states them, for the method shown. Binding seen in cells or lysates may run through a third protein. Some results given as binding are weak or reduced against the parent protein; the word gives no strength.

Protein sequences, listed by entry. Tags and fused reporters are not part of them. Residues count along the entry.
UniProt Q9JHJ8, residues 44-322: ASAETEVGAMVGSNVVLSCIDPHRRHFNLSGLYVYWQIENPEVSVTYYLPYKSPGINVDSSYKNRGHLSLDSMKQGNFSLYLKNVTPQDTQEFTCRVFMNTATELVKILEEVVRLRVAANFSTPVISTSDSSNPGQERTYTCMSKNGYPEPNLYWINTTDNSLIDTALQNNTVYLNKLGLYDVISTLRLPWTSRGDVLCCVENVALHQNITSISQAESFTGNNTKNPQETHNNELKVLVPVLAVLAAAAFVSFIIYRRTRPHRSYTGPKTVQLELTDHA
UniProt P10923, residues 17-294: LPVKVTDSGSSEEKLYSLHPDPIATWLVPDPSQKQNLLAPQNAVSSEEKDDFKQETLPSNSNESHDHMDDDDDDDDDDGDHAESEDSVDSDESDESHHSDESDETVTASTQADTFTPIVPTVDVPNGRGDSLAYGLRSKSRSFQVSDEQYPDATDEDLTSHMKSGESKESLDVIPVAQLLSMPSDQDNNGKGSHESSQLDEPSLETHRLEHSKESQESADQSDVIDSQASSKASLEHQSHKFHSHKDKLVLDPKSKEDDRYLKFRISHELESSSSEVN

How the values were obtained:
[1] = target: ICOSL expressed from a plasmid in 4T1 cells (4T1-ICOSL) (not stated (human or mouse cDNA cloned)) (UniProt Q9JHJ8); test: proximity ligation; primary tumor sections of 4T1 and 4T1-ICOSL tumors grown in BALB/c mice; goat anti-OPN and rabbit anti-ICOSL, Duolink kit
[2] = target: mouse ICOSL, endogenous in tissue (mouse (endogenous in kidney)) (UniProt Q9JHJ8); test: proximity ligation; kidney sections of C57BL/6J and MRL-lpr mice; goat anti-OPN and rabbit anti-ICOSL, Duolink kit; OPN-/- and ICOSL-/- mice as negative controls

In the case of “mouse OPN, endogenous in tissue (from UniProt P10923 17-294)”, the binding [1] is reported as “binds” and the binding [2] is reported as “binds”.
